Measurements from PMC4801420.
Results are given in words; binding and its absence hold for the method and conditions named. Some entries that bind do so weakly or less than the wild type.

Amino acid sequences for entries named in this document (tags omitted). Residues count along the entry.
UniProt Q9EPN1, residues 2137-2936: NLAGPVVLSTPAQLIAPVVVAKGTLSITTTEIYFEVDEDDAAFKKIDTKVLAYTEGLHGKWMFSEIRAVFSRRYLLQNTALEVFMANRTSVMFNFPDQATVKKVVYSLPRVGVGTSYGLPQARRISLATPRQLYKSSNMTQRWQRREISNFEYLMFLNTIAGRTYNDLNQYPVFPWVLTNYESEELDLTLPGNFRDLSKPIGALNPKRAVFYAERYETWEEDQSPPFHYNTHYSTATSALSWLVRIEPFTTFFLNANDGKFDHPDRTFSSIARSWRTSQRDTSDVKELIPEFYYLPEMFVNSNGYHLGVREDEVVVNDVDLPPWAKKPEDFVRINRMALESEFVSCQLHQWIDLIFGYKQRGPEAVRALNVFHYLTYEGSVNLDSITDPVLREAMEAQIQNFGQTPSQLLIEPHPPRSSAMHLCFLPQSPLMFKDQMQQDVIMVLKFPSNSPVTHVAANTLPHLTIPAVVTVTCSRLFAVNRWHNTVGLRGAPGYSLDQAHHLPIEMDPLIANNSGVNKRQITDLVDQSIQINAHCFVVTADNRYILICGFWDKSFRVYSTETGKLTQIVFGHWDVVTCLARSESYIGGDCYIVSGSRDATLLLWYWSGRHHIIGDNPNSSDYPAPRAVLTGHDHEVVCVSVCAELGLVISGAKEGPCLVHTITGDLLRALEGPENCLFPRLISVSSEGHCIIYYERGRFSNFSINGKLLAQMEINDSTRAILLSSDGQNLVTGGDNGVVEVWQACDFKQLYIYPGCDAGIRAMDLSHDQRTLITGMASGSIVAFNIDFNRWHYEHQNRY
UniProt Q01705, residues 2223-2457: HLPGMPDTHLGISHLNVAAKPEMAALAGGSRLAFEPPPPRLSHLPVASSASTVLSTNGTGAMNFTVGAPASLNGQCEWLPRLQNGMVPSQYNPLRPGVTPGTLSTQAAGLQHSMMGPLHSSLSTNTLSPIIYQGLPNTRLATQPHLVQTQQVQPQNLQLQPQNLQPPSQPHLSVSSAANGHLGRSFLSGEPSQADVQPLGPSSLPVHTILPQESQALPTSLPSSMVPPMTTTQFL

Molecular target: NBEA PBW domain module (PH-like-BEACH-WD40), yeast two-hybrid bait (mouse) (UniProt Q9EPN1)
Experiment: two-hybrid; library screen by Hybrigenics Services: bait pB27-PBW in the L40ΔGal4 yeast strain, against a mouse embryonic (E10.5 and E12.5) brain cDNA library

binding: binds
Substance: NOTCH1 intracellular domain (NICD) prey fragment His2223-Leu2457 (from UniProt Q01705 2223-2457) (domain or fragment)
